Experimental data taken from US20050124032A1 (priority 2002, published 2005).
Some results were stated once for a whole list of compounds, not compound by compound. For at least one compound, name, drawing or mass did not settle the structure.

System: X. dendrorhous cells
Details: 6% EMS, 10^8 cells/ml, 0.1M sodium phosphate buffer pH 7.0, 20° C., 40-80 minutes

**Q.** `CCOS(C)(=O)=O` [EMS, ethylmethane sulphonate] was tested. Which Mortality rate did it give?
**A.** 90-99%
